Source: PubChem BioAssay AID1487 (National Center for Advancing Translational Sciences (NCATS), 2009)
Some of the results follow. The main result of the screen is listed elsewhere. These columns were measured beside it and carry no call. The list favours compounds with an active or inconclusive main result. Words in brackets tell the shape of the fitted curve; partial curves, single points and poor fits give uncertain potencies.

Experiment: qHTS Assay for Modulators of Lamin A Splicing
Details: HeLa LMNA splicing GFP/RFP minigene ratio, 48 h
Summary of the method: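 S3 HeLa stable clones carrying a lamin A-EGFP splicing minigene plus DsRed2 were seeded at 600 cells/well in Opti-MEM with 2% FBS, pin-dosed and incubated 48 h at 37°C. Acumen cytometry (488 nm) gave the GFP/RFP total-intensity ratio.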

[1] = measured here: RFP viability control channel
[2] = measured here: GFP splicing reporter channel

| Structure (SMILES) | AC50 [1] | AC50 [2] |
| --- | --- | --- |
| CCN(CC)S(=O)(=O)c1ccc(NC(=O)COC(=O)CNS(=O)(=O)/C=C/c2ccccc2)cc1 | 0.00891 µM [rising, full curve, poor fit] |  |
| O=C(NC(=S)N1CCN(c2ccc([N+](=O)[O-])cc2)CC1)c1ccccc1F | 35.5 µM [rising, single point] | 22.4 µM [rising, single point] |
| S=C(NCC1CCCO1)Nc1cccc(Cl)c1 (stereo not drawn) |  | 39.8 µM [falling, partial curve, poor fit] |
| CCCn1c(=N)c(C(=O)NC2CCCC2)cc2c(=O)n3cccc(C)c3nc21 | 17.8 µM [rising, single point] |  |
| Cn1c(=O)oc2cc(S(=O)(=O)NCCC(=O)Nc3ccc4c(c3)OCCO4)ccc21 |  | 1.41 µM [falling, single point] |
| COc1cc(S(=O)(=O)N2CCN(c3ccccc3F)CC2)c(OC)cc1Cl | 20 µM [rising, partial curve] | 15.8 µM [rising, single point] |
| Cc1[nH]n(-c2ccccc2)c(=O)c1N=Nc1ccccc1O | 0.631 µM [falling, single point] | 8.91 µM [falling, partial curve] |
| CC(C)(C)NC(=O)C(c1ccncc1)N(C(=O)C1CSC(=O)C1)c1ccccc1 (stereo not drawn) | 3.16 µM [falling, full curve] | 6.31 µM [falling, partial curve] |
| COc1cc2c3nnc(-c4ccc(F)cc4)c-3cn(Cc3ccccc3F)c2cc1OC |  | 0.00891 µM [rising, full curve, poor fit] |
| Cc1nnc(N(C)C(=O)c2ccc3c(c2)OCO3)s1 |  | 25.1 µM [falling, partial curve, poor fit] |
| CCCS(=O)(=O)Nc1c(C(=O)OC)[nH]c2ccccc12 | 11.2 µM [rising, partial curve] |  |
| Cc1ccc(C23CC4CC(CC(CC(=O)N5CCOCC5)(C4)C2)C3)cc1 | 35.5 µM [rising, single point] | 35.5 µM [rising, single point] |
| Nc1ccc(C(=O)OCc2nc3c(ccc4ccccc43)[nH]2)cc1 | 14.1 µM [rising, single point] |  |
| C[C@H](CO)NC(=O)[C@H](C)[C@@H]1C[C@@]1(C)[C@@H](NC(=O)OCc1ccccc1)c1ccccc1 | 17.8 µM [rising, partial curve, poor fit] | 12.6 µM [rising, single point] |
| CC(C)C(=O)Nc1nc(-c2ccccc2)ns1 | 35.5 µM [rising, single point] |  |
| CC1CCN(CC(O)COC2CC(C)CCC2C(C)C)CC1 (stereo not drawn) |  | 25.1 µM [falling, single point] |
| Cc1ccc2nc(CSc3nnc(NC(=O)c4cccc(Br)c4)s3)cc(=O)n2c1 | 0.0224 µM [rising, full curve] | 0.0224 µM [rising, full curve, poor fit] |
| CCN(C(=O)CSc1nc2ccccc2n1CC(=O)NCc1ccc(OC)cc1)c1ccccc1 |  | 0.0891 µM [rising, full curve, poor fit] |

Taken from above.
Value of CCCS(=O)(=O)Nc1c(C(=O)OC)[nH]c2ccccc12 under AC50 [1]: 11.2 µM [rising, partial curve]
Value of Cc1ccc2nc(CSc3nnc(NC(=O)c4cccc(Br)c4)s3)cc(=O)n2c1 under AC50 [2]: 0.0224 µM [rising, full curve, poor fit]

(more compounds)

| Structure (SMILES) | AC50 [1] | AC50 [2] |
| --- | --- | --- |
| COC(CNC(=O)c1cc(Sc2nnc(C)s2)nc2ccccc12)OC | 10 µM [rising, single point] |  |
| CNC(=O)C1CCC(Cn2c(=O)c3sccc3n(CC(=O)NCc3cccc(OC)c3)c2=O)CC1 (stereo not drawn) |  | 0.0355 µM [falling, full curve, poor fit] |
| Nc1nc2c(c(=O)[nH]1)N(C=O)[C@H](CNc1ccc(C(=O)N[C@@H](CCC(=O)O)C(=O)O)cc1)CN2 | 7.08 µM [falling, single point] | 12.6 µM [falling, single point] |
| CC(=O)NCCNc1nc(-c2ccc(N(C)C)cc2)nc2ccccc12 | 12.6 µM [rising, partial curve] |  |
| CCCCCCCC/C=C\CCCCCCCC(=O)NCCO |  | 14.1 µM [rising, single point] |
| CS(=O)(=O)N(CC(=O)N1CCOCC1)c1cccc([N+](=O)[O-])c1 |  | 2.24 µM [rising, full curve] |
| Cc1ccc(S(=O)(=O)N/N=C\c2ccccc2OCc2ccccc2)cc1 | 17.8 µM [falling, single point] | 22.4 µM [falling, single point] |
| CCn1c(=O)cc(SCC(=O)NCc2ccco2)c2ccccc21 |  | 3.98 µM [falling, single point] |
| CC12CCC(C/C1=N\N=C1\NC(=O)/C(=C\c3ccc(Cl)cc3)S1)C2(C)C (stereo not drawn) | 6.31 µM [rising, single point] |  |
| O=C1/C(=C\c2cccnc2)SC(=S)N1C1CCS(=O)(=O)C1 (stereo not drawn) | 35.5 µM [falling, single point] | 35.5 µM [falling, single point] |
| CCC(=O)Nc1nc2ccccc2n1Cc1ccc(C)cc1 | 35.5 µM [rising, single point] | 35.5 µM [rising, single point] |
| Cc1cc(C)cc(OCC2CNC(=O)O2)c1 (stereo not drawn) | 35.5 µM [falling, single point] | 35.5 µM [falling, single point] |
| CCOc1ccccc1NC(=O)N1CCCC(c2nc3c(nnn3Cc3ccc(C)cc3)c(=O)[nH]2)C1 (stereo not drawn) |  | 2.24 µM [rising, partial curve, poor fit] |
| COc1ccccc1-c1ccc2ncnc(NC3CC3)c2c1 |  | 11.2 µM [falling, partial curve] |
| COc1ccc(C(=O)NCc2nnc(SCC(=O)Nc3ccccc3OC)n2C)cc1 | 35.5 µM [rising, partial curve] |  |
| CCOC(=O)Oc1c(OC)cc(C(=O)O[C@H]2C[C@H]3CN4CCc5c([nH]c6cc(OC)ccc56)[C@@H]4C[C@H]3[C@@H](C(=O)OC)[C@@H]2OC)cc1OC |  | 0.562 µM [falling, single point] |
| CCc1ccc(N/C(N)=N/c2nc(CSc3ncccn3)cc(=O)[nH]2)cc1 | 0.0708 µM [falling, full curve] | 0.2 µM [falling, partial curve] |
